Assay results from paper PMC7354551.
Results are given in words; binding and its absence hold for the method and conditions named. Binding seen in cells or lysates may run through a third protein. A yes stands for co-enrichment or nearness to the bait. Other partners may have been found.

The chains behind the UniProt entries cited, without tags or fusion partners.
UniProt Q9UER7: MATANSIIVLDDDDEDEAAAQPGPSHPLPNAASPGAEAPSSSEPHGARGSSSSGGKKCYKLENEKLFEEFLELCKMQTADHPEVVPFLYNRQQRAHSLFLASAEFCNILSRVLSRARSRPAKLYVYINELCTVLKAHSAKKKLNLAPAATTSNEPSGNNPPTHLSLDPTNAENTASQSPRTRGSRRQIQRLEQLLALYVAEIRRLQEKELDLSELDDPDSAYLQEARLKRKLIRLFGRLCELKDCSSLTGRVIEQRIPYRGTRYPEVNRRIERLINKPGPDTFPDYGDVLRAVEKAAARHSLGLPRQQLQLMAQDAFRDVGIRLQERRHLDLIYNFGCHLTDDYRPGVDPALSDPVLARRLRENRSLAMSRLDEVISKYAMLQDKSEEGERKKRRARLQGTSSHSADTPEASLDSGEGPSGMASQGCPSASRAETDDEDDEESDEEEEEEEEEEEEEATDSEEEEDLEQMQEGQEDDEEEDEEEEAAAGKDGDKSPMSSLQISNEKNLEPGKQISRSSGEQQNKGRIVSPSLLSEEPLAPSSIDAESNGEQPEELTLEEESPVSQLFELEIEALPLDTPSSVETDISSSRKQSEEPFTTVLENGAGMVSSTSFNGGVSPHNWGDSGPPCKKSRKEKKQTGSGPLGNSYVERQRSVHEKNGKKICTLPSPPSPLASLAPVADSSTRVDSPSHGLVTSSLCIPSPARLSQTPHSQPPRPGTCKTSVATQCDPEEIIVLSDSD
UniProt O75925: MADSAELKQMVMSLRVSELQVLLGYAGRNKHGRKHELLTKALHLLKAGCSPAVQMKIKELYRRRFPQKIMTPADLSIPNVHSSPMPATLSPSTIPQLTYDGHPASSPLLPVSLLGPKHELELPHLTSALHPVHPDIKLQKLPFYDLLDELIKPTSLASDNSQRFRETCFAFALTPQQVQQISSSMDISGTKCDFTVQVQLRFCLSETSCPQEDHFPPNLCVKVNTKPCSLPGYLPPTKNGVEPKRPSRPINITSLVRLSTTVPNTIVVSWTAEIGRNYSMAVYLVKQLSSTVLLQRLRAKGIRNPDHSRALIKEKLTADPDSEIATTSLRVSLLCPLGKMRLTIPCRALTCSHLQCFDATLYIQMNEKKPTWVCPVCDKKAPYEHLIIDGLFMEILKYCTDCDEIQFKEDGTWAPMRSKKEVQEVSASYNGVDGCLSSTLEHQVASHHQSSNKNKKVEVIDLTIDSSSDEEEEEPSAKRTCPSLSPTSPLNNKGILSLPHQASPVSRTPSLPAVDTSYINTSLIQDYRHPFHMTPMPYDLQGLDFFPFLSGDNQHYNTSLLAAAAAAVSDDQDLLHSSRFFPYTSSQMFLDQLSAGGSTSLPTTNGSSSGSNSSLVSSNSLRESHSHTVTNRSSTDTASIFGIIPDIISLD
UniProt P29590: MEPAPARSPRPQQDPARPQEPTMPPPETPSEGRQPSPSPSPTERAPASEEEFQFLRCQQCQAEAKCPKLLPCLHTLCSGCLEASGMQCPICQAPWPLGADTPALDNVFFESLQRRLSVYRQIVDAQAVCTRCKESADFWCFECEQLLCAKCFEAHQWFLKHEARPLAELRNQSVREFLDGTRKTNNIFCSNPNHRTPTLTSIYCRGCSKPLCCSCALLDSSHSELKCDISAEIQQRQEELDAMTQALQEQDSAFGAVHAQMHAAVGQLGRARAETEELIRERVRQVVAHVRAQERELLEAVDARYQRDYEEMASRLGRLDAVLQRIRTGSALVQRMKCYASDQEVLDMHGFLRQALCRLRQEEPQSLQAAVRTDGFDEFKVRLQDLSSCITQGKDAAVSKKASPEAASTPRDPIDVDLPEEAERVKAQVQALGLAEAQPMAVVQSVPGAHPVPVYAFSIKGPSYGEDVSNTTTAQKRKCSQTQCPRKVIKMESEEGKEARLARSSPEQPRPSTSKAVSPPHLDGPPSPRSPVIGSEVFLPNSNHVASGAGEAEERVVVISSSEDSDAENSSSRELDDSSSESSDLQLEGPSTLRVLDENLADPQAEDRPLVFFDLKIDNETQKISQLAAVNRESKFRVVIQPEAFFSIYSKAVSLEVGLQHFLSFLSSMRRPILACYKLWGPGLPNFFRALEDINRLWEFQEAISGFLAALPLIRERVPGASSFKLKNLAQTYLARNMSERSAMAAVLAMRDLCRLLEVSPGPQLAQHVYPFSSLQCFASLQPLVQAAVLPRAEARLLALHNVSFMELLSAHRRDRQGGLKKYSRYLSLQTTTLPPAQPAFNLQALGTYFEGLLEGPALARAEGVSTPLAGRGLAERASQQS
UniProt Q13547: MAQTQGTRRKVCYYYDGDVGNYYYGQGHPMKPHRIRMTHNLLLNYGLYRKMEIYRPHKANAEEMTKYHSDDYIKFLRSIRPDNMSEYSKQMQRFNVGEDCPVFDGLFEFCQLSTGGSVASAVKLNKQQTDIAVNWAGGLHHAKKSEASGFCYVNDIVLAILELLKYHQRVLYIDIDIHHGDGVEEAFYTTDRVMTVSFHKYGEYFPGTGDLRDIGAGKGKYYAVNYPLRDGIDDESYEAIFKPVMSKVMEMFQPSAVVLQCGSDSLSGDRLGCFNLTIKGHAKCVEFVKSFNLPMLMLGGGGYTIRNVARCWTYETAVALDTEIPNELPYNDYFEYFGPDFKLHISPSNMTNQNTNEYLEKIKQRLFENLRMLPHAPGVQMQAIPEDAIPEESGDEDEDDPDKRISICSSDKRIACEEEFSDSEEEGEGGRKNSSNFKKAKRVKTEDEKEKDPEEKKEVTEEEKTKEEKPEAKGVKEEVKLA
UniProt Q93009: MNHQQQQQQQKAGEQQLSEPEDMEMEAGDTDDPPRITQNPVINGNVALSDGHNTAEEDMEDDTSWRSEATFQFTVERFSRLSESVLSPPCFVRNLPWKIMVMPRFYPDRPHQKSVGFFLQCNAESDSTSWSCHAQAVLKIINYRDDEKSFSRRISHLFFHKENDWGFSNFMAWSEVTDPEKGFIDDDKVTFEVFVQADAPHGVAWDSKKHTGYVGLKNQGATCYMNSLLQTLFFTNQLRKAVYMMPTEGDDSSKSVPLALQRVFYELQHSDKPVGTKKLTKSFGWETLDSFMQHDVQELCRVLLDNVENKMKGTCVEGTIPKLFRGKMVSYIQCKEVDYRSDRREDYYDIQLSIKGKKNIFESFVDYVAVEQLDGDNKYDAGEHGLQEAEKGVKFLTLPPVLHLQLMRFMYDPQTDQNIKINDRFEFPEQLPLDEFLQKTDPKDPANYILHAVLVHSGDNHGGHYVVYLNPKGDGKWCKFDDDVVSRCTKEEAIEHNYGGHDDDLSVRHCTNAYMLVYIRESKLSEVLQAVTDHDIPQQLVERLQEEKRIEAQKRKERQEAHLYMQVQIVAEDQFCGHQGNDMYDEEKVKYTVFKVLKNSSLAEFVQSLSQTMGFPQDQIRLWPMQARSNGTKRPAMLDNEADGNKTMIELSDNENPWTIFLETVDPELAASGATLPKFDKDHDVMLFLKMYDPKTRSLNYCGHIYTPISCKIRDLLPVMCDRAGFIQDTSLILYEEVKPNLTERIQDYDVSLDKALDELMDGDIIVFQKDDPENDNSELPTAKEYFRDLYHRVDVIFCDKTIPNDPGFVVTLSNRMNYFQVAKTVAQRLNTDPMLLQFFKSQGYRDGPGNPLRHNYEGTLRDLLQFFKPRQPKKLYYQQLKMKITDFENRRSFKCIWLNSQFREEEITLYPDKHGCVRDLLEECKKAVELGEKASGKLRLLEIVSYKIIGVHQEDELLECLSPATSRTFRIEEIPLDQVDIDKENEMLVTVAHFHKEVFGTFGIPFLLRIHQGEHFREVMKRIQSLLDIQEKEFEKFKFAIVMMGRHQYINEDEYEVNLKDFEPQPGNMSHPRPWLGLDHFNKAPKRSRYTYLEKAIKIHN
UniProt Q92793: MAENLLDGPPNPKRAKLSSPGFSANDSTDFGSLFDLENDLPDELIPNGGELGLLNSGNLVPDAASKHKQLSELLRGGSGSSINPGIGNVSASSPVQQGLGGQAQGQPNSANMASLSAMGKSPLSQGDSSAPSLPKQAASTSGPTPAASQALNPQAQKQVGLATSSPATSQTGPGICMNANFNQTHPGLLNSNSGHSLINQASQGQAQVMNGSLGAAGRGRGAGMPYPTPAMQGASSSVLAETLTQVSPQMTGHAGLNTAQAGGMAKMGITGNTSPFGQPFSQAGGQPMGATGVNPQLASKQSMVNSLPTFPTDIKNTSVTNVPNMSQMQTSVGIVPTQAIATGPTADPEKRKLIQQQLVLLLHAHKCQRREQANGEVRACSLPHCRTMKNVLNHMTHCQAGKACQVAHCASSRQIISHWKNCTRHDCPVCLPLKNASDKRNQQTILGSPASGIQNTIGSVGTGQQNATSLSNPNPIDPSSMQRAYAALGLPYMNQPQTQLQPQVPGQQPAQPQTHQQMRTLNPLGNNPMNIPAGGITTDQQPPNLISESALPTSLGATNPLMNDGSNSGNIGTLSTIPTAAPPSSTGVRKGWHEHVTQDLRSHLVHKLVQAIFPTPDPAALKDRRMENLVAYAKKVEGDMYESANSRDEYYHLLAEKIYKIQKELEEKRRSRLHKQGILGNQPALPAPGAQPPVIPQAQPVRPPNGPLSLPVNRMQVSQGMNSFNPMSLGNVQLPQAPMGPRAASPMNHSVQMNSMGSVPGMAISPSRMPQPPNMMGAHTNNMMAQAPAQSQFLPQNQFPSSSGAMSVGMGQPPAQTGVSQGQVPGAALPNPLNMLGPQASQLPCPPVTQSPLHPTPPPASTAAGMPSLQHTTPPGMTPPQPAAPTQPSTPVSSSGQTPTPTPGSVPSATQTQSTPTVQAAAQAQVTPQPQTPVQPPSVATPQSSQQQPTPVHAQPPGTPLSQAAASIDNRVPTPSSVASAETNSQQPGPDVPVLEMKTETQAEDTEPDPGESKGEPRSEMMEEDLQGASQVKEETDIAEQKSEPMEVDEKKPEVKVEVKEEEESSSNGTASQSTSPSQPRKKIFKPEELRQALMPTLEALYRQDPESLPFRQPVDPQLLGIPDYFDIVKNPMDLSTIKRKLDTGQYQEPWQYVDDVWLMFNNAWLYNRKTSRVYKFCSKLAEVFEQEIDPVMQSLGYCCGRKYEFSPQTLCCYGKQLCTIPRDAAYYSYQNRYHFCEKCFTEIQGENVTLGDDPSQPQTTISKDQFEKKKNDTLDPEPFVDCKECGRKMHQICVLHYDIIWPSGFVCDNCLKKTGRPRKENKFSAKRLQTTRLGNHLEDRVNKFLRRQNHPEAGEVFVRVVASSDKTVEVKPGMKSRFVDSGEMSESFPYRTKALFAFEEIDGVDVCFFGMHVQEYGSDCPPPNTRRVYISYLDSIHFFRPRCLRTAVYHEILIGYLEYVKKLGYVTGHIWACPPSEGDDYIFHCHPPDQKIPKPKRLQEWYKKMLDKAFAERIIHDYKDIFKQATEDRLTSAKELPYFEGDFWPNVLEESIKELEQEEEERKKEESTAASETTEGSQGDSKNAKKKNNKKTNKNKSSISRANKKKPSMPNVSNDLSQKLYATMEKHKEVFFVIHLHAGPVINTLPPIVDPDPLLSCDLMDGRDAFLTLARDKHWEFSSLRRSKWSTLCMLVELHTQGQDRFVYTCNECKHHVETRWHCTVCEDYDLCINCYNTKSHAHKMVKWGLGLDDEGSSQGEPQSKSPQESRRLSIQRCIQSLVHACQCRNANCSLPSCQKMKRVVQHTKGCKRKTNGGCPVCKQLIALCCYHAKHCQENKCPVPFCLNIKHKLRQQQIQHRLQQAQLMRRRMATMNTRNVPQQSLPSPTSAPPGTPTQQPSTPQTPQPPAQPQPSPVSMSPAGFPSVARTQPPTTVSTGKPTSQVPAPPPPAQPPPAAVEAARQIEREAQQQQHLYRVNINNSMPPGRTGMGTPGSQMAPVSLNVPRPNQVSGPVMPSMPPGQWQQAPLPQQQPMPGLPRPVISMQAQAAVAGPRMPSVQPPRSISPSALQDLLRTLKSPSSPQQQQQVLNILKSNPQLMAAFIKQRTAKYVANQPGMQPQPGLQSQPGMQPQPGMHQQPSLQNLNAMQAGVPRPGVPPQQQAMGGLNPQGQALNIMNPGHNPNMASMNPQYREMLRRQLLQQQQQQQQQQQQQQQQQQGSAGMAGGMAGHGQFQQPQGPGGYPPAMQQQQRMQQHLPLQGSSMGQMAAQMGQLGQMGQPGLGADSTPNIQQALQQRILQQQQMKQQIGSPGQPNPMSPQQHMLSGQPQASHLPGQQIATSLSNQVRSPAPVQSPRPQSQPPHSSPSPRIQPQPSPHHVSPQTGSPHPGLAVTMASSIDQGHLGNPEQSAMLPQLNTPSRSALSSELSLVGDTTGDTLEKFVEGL

B1: Protein DEK (protein, UniProt P35659 1-375)
chain: MSASAPAAEGEGTPTQPASEKEPEMPGPREESEEEEDEDDEEEEEEEKEKSLIVEGKREKKKVERLTMQVSSLQREPFTIAQGKGQKLCEIERIHFFLSKKKTDELRNLHKLLYNRPGTVSSLKKNVGQFSGFPFEKGSVQYKKKEEMLKKFRNAMLKSICEVLDLERSGVNSELVKRILNFLMHPKPSGKPLPKSKKTCSKGSKKERNSSGMARKAKRTKCPEILSDESSSDEDEKKNKEESSDDEDKESEEEPPKKTAKREKPKQKATSKSKKSVKSANVKKADSSTTKKNQNSSKKESESEDSSDDEPLIKKLKKPPTDEELKETIKKLLASANLEEVTMKQICKKVYENYPTYDLTERKDFIKTTVKELIS
B2: Transportin-3 (protein, UniProt Q9Y5L0 1-923)
chain: MEGAKPTLQLVYQAVQALYHDPDPSGKERASFWLGELQRSVHAWEISDQLLQIRQDVESCYFAAQTMKMKIQTSFYELPTDSHASLRDSLLTHIQNLKDLSPVIVTQLALAIADLALQMPSWKGCVQTLVEKYSNDVTSLPFLLEILTVLPEEVHSRSLRIGANRRTEIIEDLAFYSSTVVSLLMTCVEKAGTDEKMLMKVFRCLGSWFNLGVLDSNFMANNKLLALLFEVLQQDKTSSNLHEAASDCVCSALYAIENVETNLPLAMQLFQGVLTLETAYHMAVAREDLDKVLNYCRIFTELCETFLEKIVCTPGQGLGDLRTLELLLICAGHPQYEVVEISFNFWYRLGEHLYKTNDEVIHGIFKAYIQRLLHALARHCQLEPDHEGVPEETDDFGEFRMRVSDLVKDLIFLIGSMECFAQLYSTLKEGNPPWEVTEAVLFIMAAIAKSVDPENNPTLVEVLEGVVRLPETVHTAVRYTSIELVGEMSEVVDRNPQFLDPVLGYLMKGLCEKPLASAAAKAIHNICSVCRDHMAQHFNGLLEIARSLDSFLLSPEAAVGLLKGTALVLARLPLDKITECLSELCSVQVMALKKLLSQEPSNGISSDPTVFLDRLAVIFRHTNPIVENGQTHPCQKVIQEIWPVLSETLNKHRADNRIVERCCRCLRFAVRCVGKGSAALLQPLVTQMVNVYHVHQHSCFLYLGSILVDEYGMEEGCRQGLLDMLQALCIPTFQLLEQQNGLQNHPDTVDDLFRLATRFIQRSPVTLLRSQVVIPILQWAIASTTLDHRDANCSVMRFLRDLIHTGVANDHEEDFELRKELIGQVMNQLGQQLVSQLLHTCCFCLPPYTLPDVAEVLWEIMQVDRPTFCRWLENSLKGLPKETTVGAVTVTHKQLTDFHKQVTSAEECKQVCWALRDFTRLFR
B3: SUMO-activating enzyme subunit 1 (protein, UniProt Q9UBE0 1-346)
chain: MVEKEEAGGGISEEEAAQYDRQIRLWGLEAQKRLRASRVLLVGLKGLGAEIAKNLILAGVKGLTMLDHEQVTPEDPGAQFLIRTGSVGRNRAEASLERAQNLNPMVDVKVDTEDIEKKPESFFTQFDAVCLTCCSRDVIVKVDQICHKNSIKFFTGDVFGYHGYTFANLGEHEFVEEKTKVAKVSQGVEDGPDTKRAKLDSSETTMVKKKVVFCPVKEALEVDWSSEKAKAALKRTTSDYFLLQVLLKFRTDKGRDPSSDTYEEDSELLLQIRNDVLDSLGISPDLLPEDFVRYCFSEMAPVCAVVGGILAQEIVKALSQRDPPHNNFFFFDGMKGNGIVECLGPK
B4: SUMO-activating enzyme subunit 2 (protein, UniProt Q9UBT2 1-640)
chain: MALSRGLPRELAEAVAGGRVLVVGAGGIGCELLKNLVLTGFSHIDLIDLDTIDVSNLNRQFLFQKKHVGRSKAQVAKESVLQFYPKANIVAYHDSIMNPDYNVEFFRQFILVMNALDNRAARNHVNRMCLAADVPLIESGTAGYLGQVTTIKKGVTECYECHPKPTQRTFPGCTIRNTPSEPIHCIVWAKYLFNQLFGEEDADQEVSPDRADPEAAWEPTEAEARARASNEDGDIKRISTKEWAKSTGYDPVKLFTKLFKDDIRYLLTMDKLWRKRKPPVPLDWAEVQSQGEETNASDQQNEPQLGLKDQQVLDVKSYARLFSKSIETLRVHLAEKGDGAELIWDKDDPSAMDFVTSAANLRMHIFSMNMKSRFDIKSMAGNIIPAIATTNAVIAGLIVLEGLKILSGKIDQCRTIFLNKQPNPRKKLLVPCALDPPNPNCYVCASKPEVTVRLNVHKVTVLTLQDKIVKEKFAMVAPDVQIEDGKGTILISSEEGETEANNHKKLSEFGIRNGSRLQADDFLQDYTLLINILHSEDLGKDVEFEVVGDAPEKVGPKQAEDAAKSITNGSDDGAQPSTSTAQEQDDVLIVDSDEEDSSNNADVSEEERSRKRKLDEKENLSAKRSRIEQKEELDDVIALD

target: HA-tagged Daxx wild-type (death domain-associated protein 6) (human) (UniProt Q9UER7); test: affinity purification with mass spectrom

Row | Molecule | binding
1 | B1 | binds
2 | B2 | binds
3 | B3 | binds
4 | B4 | binds

target: HA-tagged Daxx wild-type (death domain-associated protein 6) (human) (UniProt Q9UER7); test: affinity purification with mass spectrom; remark: another data set of the same source

Row | Molecule | binding
5 | E3 SUMO-protein ligase RanBP2 (from UniProt P49792 1-3224) | binds
6 | E3 SUMO-protein ligase PIAS1 (from UniProt O75925 1-651) | binds
7 | Protein PML (from UniProt P29590 1-882) | binds
8 | Histone deacetylase 1 (from UniProt Q13547 1-482) | binds
9 | Ubiquitin carboxyl-terminal hydrolase 7 (from UniProt Q93009 1-1102) | binds
10 | CREB-binding protein (from UniProt Q92793 1-2442) | binds
